Assay: ^225Ac radiolabeling of macropa and DOTA
Assay type: physicochemical
Conditions: ligand 59 μM; ^225Ac 26 kBq; 0.15 M NH4OAc pH 5.5-6; 5 min at RT

O=C(O)c1cccc(CN2CCOCCOCCN(Cc3cccc(C(=O)O)n3)CCOCCOCC2)n1 [macropa, N,N′-bis[(6-carboxy-2-pyridil)methyl]-4,13-diaza-18-crown-6]
^225Ac complexed (radio-TLC): all

From US20220016277A1, “MACROCYCLIC COMPLEXES OF RADIONUCLIDES AND THEIR USE IN RADIOTHERAPY OF CANCER” (Cornell University, priority 2018, published 2022)
